The target of this test is T1, macrophage migration inhibitory factor (MIF) (human (endogenous in HeLa and HEK293)) (UniProt P14174).
T1 sequence: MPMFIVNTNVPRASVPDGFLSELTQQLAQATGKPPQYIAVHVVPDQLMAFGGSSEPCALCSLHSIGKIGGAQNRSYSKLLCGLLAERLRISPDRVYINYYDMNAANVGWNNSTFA
The test can be described thus: co-IP; HEK293 cells, with or without RSL3 (4 µM, 2 h); immunoprecipitation with MIF, Ku70 or Ku80 antibodies, then immunoblot; rabbit and mouse IgG as negative controls.

Sequences of proteins named here, by UniProt entry; tags and fusion partners are left off.
UniProt P12956: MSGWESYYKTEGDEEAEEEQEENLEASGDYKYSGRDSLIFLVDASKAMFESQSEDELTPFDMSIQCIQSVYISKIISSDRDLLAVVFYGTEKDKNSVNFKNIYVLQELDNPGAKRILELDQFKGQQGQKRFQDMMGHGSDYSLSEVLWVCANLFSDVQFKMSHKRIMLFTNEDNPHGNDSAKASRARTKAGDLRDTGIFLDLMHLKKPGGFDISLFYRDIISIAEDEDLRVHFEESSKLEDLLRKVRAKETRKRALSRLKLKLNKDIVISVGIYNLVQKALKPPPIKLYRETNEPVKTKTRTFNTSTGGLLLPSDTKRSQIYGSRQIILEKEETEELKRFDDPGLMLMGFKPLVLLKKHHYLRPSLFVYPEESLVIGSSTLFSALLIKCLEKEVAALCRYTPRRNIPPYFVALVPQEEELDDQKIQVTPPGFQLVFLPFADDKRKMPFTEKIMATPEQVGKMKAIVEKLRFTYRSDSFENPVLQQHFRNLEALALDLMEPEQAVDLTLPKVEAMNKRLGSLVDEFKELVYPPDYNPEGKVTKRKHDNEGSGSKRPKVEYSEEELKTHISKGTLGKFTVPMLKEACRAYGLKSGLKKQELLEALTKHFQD
UniProt P13010: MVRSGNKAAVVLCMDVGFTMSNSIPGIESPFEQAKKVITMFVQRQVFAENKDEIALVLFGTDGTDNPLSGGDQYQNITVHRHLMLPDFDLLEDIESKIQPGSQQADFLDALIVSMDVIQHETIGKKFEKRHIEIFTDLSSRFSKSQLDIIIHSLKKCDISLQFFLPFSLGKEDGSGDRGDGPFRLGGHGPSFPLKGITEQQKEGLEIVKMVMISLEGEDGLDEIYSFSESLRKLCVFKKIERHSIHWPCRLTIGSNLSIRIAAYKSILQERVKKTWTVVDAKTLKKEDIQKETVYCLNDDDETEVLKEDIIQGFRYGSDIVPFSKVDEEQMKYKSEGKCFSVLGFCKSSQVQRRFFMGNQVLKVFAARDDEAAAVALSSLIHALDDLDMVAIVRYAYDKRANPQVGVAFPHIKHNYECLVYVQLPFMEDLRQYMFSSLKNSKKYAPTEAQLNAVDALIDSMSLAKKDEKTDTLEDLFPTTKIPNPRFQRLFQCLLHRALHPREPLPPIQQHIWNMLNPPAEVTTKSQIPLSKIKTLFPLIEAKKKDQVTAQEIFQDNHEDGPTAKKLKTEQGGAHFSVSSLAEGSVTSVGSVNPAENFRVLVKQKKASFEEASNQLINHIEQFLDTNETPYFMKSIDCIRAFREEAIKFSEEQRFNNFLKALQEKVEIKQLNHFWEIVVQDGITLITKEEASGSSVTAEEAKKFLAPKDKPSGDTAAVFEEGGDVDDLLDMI

No constants are given. Whether binding was seen depends on the method and setting. Binding seen in cells or lysates may run through a third protein. Some results given as binding are weak or reduced against the parent protein; the word gives no strength.

For Ku70 (from UniProt P12956 1-609), the binding result is recorded as “binds”.

Turning to Ku80 (from UniProt P13010 1-732), the binding entry is given as “binds”.
